Data published in PubChem BioAssay AID588590 (National Center for Advancing Translational Sciences (NCATS), 2011).
Out of some 390,000 compounds screened, about 4,000 (1%) were called active. Inconclusive means that the source gave no clear call. Such entries were picked first, then a sample of the others. Calls follow the shape of the dose curve; as a rule, active = well fitted inhibition curve with a large enough effect; inconclusive = small, poorly fitted or top-dose-only effect, or another doubt; inactive = no such curve, though single readings can be large or run the other way. Where the call is inconclusive, the potency comes from a doubtful curve fit.

Chains of the proteins cited; added tags and fusions are not shown. Lines headed by an entry give the natural chain unless they say otherwise; changes in a name come on top.
UniProt Q9UNA4: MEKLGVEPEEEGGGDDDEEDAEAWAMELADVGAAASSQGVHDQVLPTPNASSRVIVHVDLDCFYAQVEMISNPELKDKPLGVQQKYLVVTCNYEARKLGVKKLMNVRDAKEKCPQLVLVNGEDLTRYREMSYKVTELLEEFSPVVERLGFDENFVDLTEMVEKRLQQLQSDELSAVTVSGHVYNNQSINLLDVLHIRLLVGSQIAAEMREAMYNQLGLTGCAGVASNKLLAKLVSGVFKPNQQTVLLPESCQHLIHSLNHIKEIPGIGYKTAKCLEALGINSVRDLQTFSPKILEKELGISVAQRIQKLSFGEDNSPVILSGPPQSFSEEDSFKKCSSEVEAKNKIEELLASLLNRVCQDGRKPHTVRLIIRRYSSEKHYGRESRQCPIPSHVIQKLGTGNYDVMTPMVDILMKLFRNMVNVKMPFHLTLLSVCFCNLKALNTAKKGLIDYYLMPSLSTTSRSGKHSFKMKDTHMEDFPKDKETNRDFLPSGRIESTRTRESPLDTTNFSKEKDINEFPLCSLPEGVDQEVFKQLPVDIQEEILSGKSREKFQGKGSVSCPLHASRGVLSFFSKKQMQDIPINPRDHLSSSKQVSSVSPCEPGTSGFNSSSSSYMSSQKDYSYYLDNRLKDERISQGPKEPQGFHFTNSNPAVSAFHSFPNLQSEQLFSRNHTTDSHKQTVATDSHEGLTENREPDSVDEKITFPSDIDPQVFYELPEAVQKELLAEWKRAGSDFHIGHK

The compounds below were run against DNA polymerase iota (Homo sapiens) (UniProt Q9UNA4) (assay: qHTS for Inhibitors of Polymerase Iota). Conditions: Pol iota fluorescent replication assay, 10 min; series mostly up to 115 µM; activity, negative = inhibition: at the top concentration.
Summary of the method: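 Pol iota at 10 nM preincubated 15 min with compounds at room temperature; reaction started with fluorescent substrate, 50 nM final. Fluorescence read kinetically at 0 and 10 min; buffer-only wells as negative control.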
Potency is read from the fitted curve at half-maximal effect.

SMILES | Potency | activity, negative = inhibition
Cc1cc(C)cc(NC(=O)c2ccc(N3C(=O)C4CCCCC4C3=O)cc2)c1 (configuration not stated) | inconclusive: 79.4 µM [inhibitor, single point] | –
C/C(=N/NC(=O)C1CCN(S(=O)(=O)c2ccc(C)cc2)CC1)c1cccc([N+](=O)[O-])c1 | inconclusive: 100 µM [inhibitor, single point] | –
CCN(Cc1ccccc1)Cc1c(O)ccc2c(=O)c(-c3ccc(Cl)cc3)c(C(F)(F)F)oc12 | – | inactive: -1.21%
Cc1ccc(C)c(N2CCN(CCCNC(=O)c3cnn(-c4ccccc4)c3C3CCN(C(=O)OC(C)(C)C)CC3)CC2)c1 | inconclusive: 39.8 µM [inhibitor, partial curve, poor fit] | –
CCSc1nnc(NC(=O)Cn2cnc3ccccc3c2=O)s1 | inconclusive: 10 µM [inhibitor, full curve, poor fit] | –
c1ccc2c(c1)oc1c(Nc3ccc4c(c3)OCCO4)ncnc12 | inconclusive: 14.1 µM [inhibitor, full curve, poor fit] | –
CCCCSc1nnc(CSc2nc3nc(C)cc(C)n3n2)o1 | inconclusive: 89.1 µM [inhibitor, partial curve, poor fit] | –
COc1ccc(OC)c(C(=O)CSc2ncc3c(n2)-c2ccccc2N(Cc2ccccc2C)S3(=O)=O)c1 | – | inactive: 16.4%
CC(=O)c1ccc(NC(=O)C2=CC(c3ccc(C)cc3)=NS(=O)(=O)N2C)cc1 | – | inactive: 28.4%
O=C(N/N=C/c1ccc(OCc2ccccc2)cc1)c1ccncc1 | – | inactive: -22.3%
CC(C)C(=O)N1CCC2(CC1)Oc1ccc(Cl)cc1C(=O)C21CC(c2ccc(Cl)cc2)=NO1 (configuration not stated) | inconclusive: 35.5 µM [inhibitor, partial curve, poor fit] | –
O=C(NCc1ccc2c(c1)OCO2)c1ccc2snnc2c1 | inconclusive: 56.2 µM [inhibitor, single point] | –
COc1ccc(CN2C(=O)C(CC(C)C)Nc3ncnc(N4CCN(c5ccccc5)CC4)c32)cc1 (configuration not stated) | inconclusive: 17.8 µM [inhibitor, full curve, poor fit] | –
Cc1ccc(S(=O)(=O)Cc2nc(-c3ccc(C(=O)NCc4ccccc4C)cc3)oc2C)cc1 | inconclusive: 12.6 µM [inhibitor, partial curve, poor fit] | –
CCCCCOC(=O)CSc1nc2sc3c(c2c(=O)n1-c1ccccc1)CC(C)(CC)OC3 (configuration not stated) | – | inactive: 11.5%
O=C(O)CN1C(=O)/C(=C/c2ccc(SCc3ccccc3)o2)SC1=S | inconclusive: 20 µM [inhibitor, full curve, poor fit] | –
O=C(COc1ccccc1)Nc1ccc(C(=O)N2CCCC2)cc1 | active: 89.1 µM | –

2 of the compounds above, with each value named:
O=C(NCc1ccc2c(c1)OCO2)c1ccc2snnc2c1
  Potency: inconclusive: 56.2 µM [inhibitor, single point]
COc1ccc(CN2C(=O)C(CC(C)C)Nc3ncnc(N4CCN(c5ccccc5)CC4)c32)cc1 (configuration not stated)
  Potency: inconclusive: 17.8 µM [inhibitor, full curve, poor fit]
